Consider four molecules from US20230050773A1 (AstraZeneca / MedImmune, published 2023).

Sequences of proteins named here, by UniProt entry; tags and fusion partners are left off. A change or cut given only in a name is not applied to a line headed by its entry.
UniProt P15018: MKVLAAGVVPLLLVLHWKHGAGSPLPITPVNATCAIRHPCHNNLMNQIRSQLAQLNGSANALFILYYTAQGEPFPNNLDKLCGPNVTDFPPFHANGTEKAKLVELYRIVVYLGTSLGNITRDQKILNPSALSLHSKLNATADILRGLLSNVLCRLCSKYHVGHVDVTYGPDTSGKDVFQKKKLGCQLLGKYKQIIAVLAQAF

B1: NB0937 (antibody, V domains shown)
VH: EVQLVESGGGLVQPGGSLRLSCAASGFSFSTDYWMSWVRQAPGKGLEWVSSIYVGTSGDTYYADSVKGRFTISRDNSKNTLYLQMDSLRAEDTAIYYCAGADNPYDYFNLWGQGTLVTVS
VL: DIQMTQSPSSVSASVGDRVTITCRASETISGYLAWYQQKPGKAPKLLIYRASSLESGVPSRFSGSGSGTEFTLTISSLQPDDFATYYCQQGYSYSDTDNVFGGGTKVEIK
notes: Humanized variant of B7 by CDR grafting; also called Clone 937
B2: NB0919 (antibody, V domains shown)
VH: QVQLQESGPGLVKPSDTLSLTCTVSGFSFSTDYWWSWIRQPPGKGLEWIGYIYVGTSGDTYYNPSLKSRVTISVDTSKNQFSLKLSSVTAADTAVYYCAGADNPYDYFNLWGQGTLVTVSS
VL: B1 VL with V11L, A34N, E55Q, E70D, D81E
notes: Humanized variant of B7 by CDR grafting; also called Clone 919
B3: NB0938 (antibody, V domains shown)
VH: B1 VH
VL: B1 VL with V11L, A34N, E55Q, E70D, D81E
notes: Humanized variant of B7 by CDR grafting; also called Clone 938
B4: NB0920 (antibody, V domains shown)
VH: B2 VH
VL: B1 VL with V11L, A43V, S53T, E55Q, E70D, D81E, F83V
notes: Humanized variant of B7 by CDR grafting; also called Clone 920

Residue numbers refer to the chain shown, from its start. Results are given in words; binding and its absence hold for the method and conditions named. A result given as binding can be weak or reduced; the word gives no strength.

One experiment addresses recombinant human LIF (Leukemia Inhibitory Factor) (human) (UniProt P15018). Briefly: ELISA (FIG. 2). On the technique in general: ELISA stands for enzyme-linked immunosorbent assay.
For B1, the binding result is reported as “binds”.

B2: the binding entry is “binds”.

In the case of B3, the binding entry is “binds”.

For the molecule B4, the binding result is recorded as “binds”.

For the next experiment the target is unchanged. Briefly: single point binding ELISA to HuLIF at 750 nM.
Turning to B1, the binding result is “binds”.

Turning to B2, the binding result is listed as “binds”.

In the case of B3, the binding entry is “binds”.

Regarding B4, the binding result is “binds”.

For the next experiment the target is unchanged. In words: ELISA on plate-coated recombinant human LIF, anti-human Fc HRP detection.
As to B1, the binding entry was “binds”.

On to B2, for which the binding entry is listed as “binds”.

B3: the binding entry is given as “binds”.

Turning to B4, the binding entry is reported as “binds”.

A further experiment shares this target. In words: blocking ELISA: antibody premixed with biotinylated recombinant human LIF, added to plate-coated human LIFR; blocked partner LIFR.
As for B1, the binding entry is given as “binds”.

With B2, the binding entry was “binds”.

For the molecule B3, the binding entry is given as “binds”.

On to B4, for which the binding entry is recorded as “binds”.
